Values from PubChem BioAssay AID652272 (Drosophila RNAi Screening Center, 2013).
The deposit covers about 21,000 reagents; shown is a random part of those with a known target gene and a result. Over the whole deposit, 503 (2.4%) got an active call. 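Raw plate light values, not normalised; calls rest on replicate z-scores that were not deposited; hits include reporter decreases as well as increases.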 Unmarked entries are inactive. Names joined by + are all predicted targets of the reagent. The record does not give: the amount of reagent, the time to read-out.

Purpose: 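Genome-wide knock-down search for components of Hedgehog signalling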 (primary screen)
Cell system: Drosophila clone 8 (Cl8) cells
Reagent: long dsRNA against Drosophila genes
Read-out: 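Plate reader light from a firefly reporter under a ptc promoter fragment that responds to Hedgehog, with Renilla light as transfection reference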
Reading the numbers: firefly Hh reporter signal: higher = more ptc reporter light; Renilla reference signal: higher = more Renilla control light
Rule for the call: 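Called a hit if the two-replicate mean z-score lies below -2 or above +3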
Calls: active = hit: reporter lowered or raised; inactive = not a hit

| predicted target | dsRNA | firefly Hh reporter signal, replicate 1 | firefly Hh reporter signal, replicate 2 | firefly Hh reporter signal, replicate 3 | Renilla reference signal, replicate 1 | Renilla reference signal, replicate 2 |
| --- | --- | --- | --- | --- | --- | --- |
| CG11790 (GeneID 42999) | DRSC14390 | 95450 | 1.00e5 | – | 3741 | 4400 |
| BBS9 (GeneID 37439) | DRSC04257 | 96453 | 64690 | – | 2672 | 6220 |
| Bmcp (GeneID 39322) | DRSC10808 | 1.27e5 | 1.10e5 | – | 5616 | 4768 |
| RpS19b (GeneID 42830) | DRSC15773 | 58160 (active) | 4.19e5 | – | 2880 | 25554 |
| hry (GeneID 38995) | DRSC11353 | 74280 | 31297 | – | 3248 | 1328 |
| CG17746 (GeneID 38400) | DRSC08521 | 62432 | 61520 | – | 2925 | 2618 |
| CG10317 (GeneID 41987) | DRSC14229 | 1.07e5 | 92268 | – | 2443 | 2356 |
| CG9263 (GeneID 34770) | DRSC03176 | 1.63e5 | 65242 | – | 4384 | 6322 |
| CG43153 (GeneID 12798157) | DRSC01189 | 6.22e5 | 2.49e5 | – | 31681 | 10100 |
| CG34171 (GeneID 5740474) | DRSC01637 | 96598 | 1.72e5 | – | 1659 | 8834 |
| ko (GeneID 40330) | DRSC11893 | 75697 | 1.05e5 | – | 2817 | 2664 |
| Syx4 (GeneID 31269) | DRSC18586 | 69837 | 2.12e5 | – | 1904 | 9063 |
| pn (GeneID 31194) | DRSC18822 | 1.05e5 | 85880 | – | 2560 | 2742 |
| Tie (GeneID 38559) | DRSC08104 | 76016 (active) | 1.23e5 | – | 3515 | 8044 |
| Tie (GeneID 38559) | DRSC08702 | 37273 | 46666 | – | 4464 | 3856 |
| CG30283 (GeneID 37454) | DRSC04071 | 76470 | 42727 | – | 1563 | 4467 |
| CG43218 (GeneID 12798438) | DRSC11475 | 2.58e5 | – | – | 6229 | – |
| CG5708 (GeneID 34361) | DRSC02881 | 1.27e5 | 57636 | – | 3506 | 5173 |
| PI31 (GeneID 36277) | DRSC07306 | 73456 | 68593 | – | 3181 | 2743 |
| CG32651 (GeneID 318140) | DRSC18941 | 5.12e5 | 1.99e5 | – | 29971 | 4189 |
| CG13994 (GeneID 33853) | DRSC02326 | 1.17e5 | 68135 | – | 3223 | 6681 |
| Osi7 (GeneID 40761) | DRSC12176 | 74058 | 1.01e5 | – | 3019 | 2807 |
| CG18371 (GeneID 36556) | DRSC06733 | 82251 | 57363 | – | 2288 | 3858 |
| galla-1 (GeneID 246485) | DRSC05987 | 70186 | 30199 | – | 3056 | 3426 |
| fal (GeneID 43927) | DRSC11087 | 1.07e5 | 74707 | – | 4480 | 2999 |
| Gr61a (GeneID 38098) | DRSC08358 | 63728 | 46016 | – | 1955 | 3760 |
| Gr28b (GeneID 117496) | DRSC02291 | 1.05e5 | 57933 | – | 2775 | 5653 |
| Gr28b (GeneID 117496) | DRSC02292 | 83011 | 41344 | – | 2144 | 4691 |
| CG11695 (GeneID 32106) | DRSC19416 | 75562 | 46149 | – | 4544 | 1328 |
| ng3 (GeneID 31299) | DRSC18804 | 80000 | 2.28e5 | – | 3543 | 10396 |
| Neurochondrin (GeneID 40796) | DRSC12580 | 1.00e5 | 81243 | – | 4348 | 3288 |
| CG15475 (GeneID 35319) | DRSC02486 | 83516 | 59104 | – | 2057 | 5296 |
| CG10280 (GeneID 40740) | DRSC12133 | 86699 | 1.30e5 | – | 3387 | 4196 |
| Diedel2 (GeneID 12798297) | DRSC13952 | 49383 | 2.59e5 | – | 12355 | 6048 |
| Msh6 (GeneID 39654) | DRSC10759 | 78209 | – | – | 3074 | 2218 |
| CG11155 (GeneID 43822) | DRSC17184 | 4.76e5 | 2.00e5 | – | 24711 | 4474 |
| CG11155 (GeneID 43822) | DRSC17205 | 1.13e5 | 84400 | – | 2433 | 2386 |
| CG31229 (GeneID 318636) | DRSC13309 | 88624 | 56379 | – | 3092 | 11668 |
| Sse (GeneID 38640) | DRSC09746 | 61085 | 52283 | – | 2802 | 2247 |
| mge (GeneID 38459) | DRSC08721 | 74690 | 44848 | – | 2389 | 3714 |
| Prosap (GeneID 50225) | DRSC06382 | 81698 | 71357 | – | 2176 | 4704 |
| Prosap (GeneID 50225) | DRSC07081 | 96081 | 70064 | – | 4052 | 2817 |
| Obp47b + CG7741 | DRSC06330 | 99589 | 41840 | – | 2349 | 3100 |
| lola (GeneID 44548) | DRSC05220 | 1.13e5 | 2.10e5 | – | 3010 | 8560 |
| lola (GeneID 44548) | DRSC05221 | 1.55e5 | 3.16e5 | – | 4148 | 12425 |
| lola (GeneID 44548) | DRSC05222 | 1.27e5 | 2.90e5 | – | 3552 | 10582 |
| lola (GeneID 44548) | DRSC05223 | 1.26e5 | 1.24e5 | – | 2869 | 5004 |
| lola (GeneID 44548) | DRSC05224 | 1.93e5 | 2.25e5 | – | 4581 | 8736 |
| lola (GeneID 44548) | DRSC06738 | 34816 | 16982 | – | 1808 | 898 |
| lola (GeneID 44548) | DRSC06739 | 75447 | 39235 | – | 2161 | 3497 |
| lola (GeneID 44548) | DRSC06740 | 64849 | 34676 | – | 2378 | 1245 |
| lola (GeneID 44548) | DRSC06741 | 1.11e5 | 47795 | – | 2952 | 4961 |
| lola (GeneID 44548) | DRSC06742 | 73020 | 28506 | – | 1844 | 1739 |
| lola (GeneID 44548) | DRSC07646 | 1.18e5 | 81817 | – | 4631 | 3293 |
| lola (GeneID 44548) | DRSC07647 | 1.22e5 | 81148 | – | 3056 | 5819 |
| PPP4R2r (GeneID 31979) | DRSC18695 | 1.62e5 | 6.88e5 | 3.23e5 | 4843 | 5874 |
| TBC1D5 (GeneID 41628) | DRSC16421 | 98492 | 1.18e5 | – | 4038 | 4408 |

Hits, of those listed so far:
| predicted target | dsRNA | firefly Hh reporter signal, replicate 1 | firefly Hh reporter signal, replicate 2 | firefly Hh reporter signal, replicate 3 | Renilla reference signal, replicate 1 | Renilla reference signal, replicate 2 |
| --- | --- | --- | --- | --- | --- | --- |
| RpS19b (GeneID 42830) | DRSC15773 | 58160 (active) | 4.19e5 | – | 2880 | 25554 |
| Tie (GeneID 38559) | DRSC08104 | 76016 (active) | 1.23e5 | – | 3515 | 8044 |
